Results are given in words; binding and its absence hold for the method and conditions named. In cells and extracts the contact can be indirect. Some results given as binding are weak or reduced against the parent protein; the word gives no strength.

Chains of the proteins cited; added tags and fusions are not shown.
UniProt Q07812: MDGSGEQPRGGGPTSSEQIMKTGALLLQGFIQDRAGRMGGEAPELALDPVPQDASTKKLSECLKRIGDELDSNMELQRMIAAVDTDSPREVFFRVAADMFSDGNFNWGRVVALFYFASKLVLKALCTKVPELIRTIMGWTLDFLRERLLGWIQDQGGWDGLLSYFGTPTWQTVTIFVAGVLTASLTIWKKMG

The record followed here is publication PMC4669745.

The assay concerns the target BAX (human (endogenous in HeLa)) (UniProt Q07812). The assay can be described thus: co-IP; HeLa cell lysates (untransfected or vector, or DRAM1-pcDNA4 for 48 h; also after serum-free medium for 4 h) incubated with 2 ug antibody (anti-BAX or anti-DRAM1) overnight at 4 °C, IgG/IgA beads, washed three times in 1x PBS pH 7.4, immunoblot.

B1: DRAM1 (DNA damage-regulated autophagy modulator 1) (protein, UniProt Q8N682 1-238)
chain: MLCFLRGMAFVPFLLVTWSSAAFIISYVVAVLSGHVNPFLPYISDTGTTPPESGIFGFMINFSAFLGAATMYTRYKIVQKQNQTCYFSTPVFNLVSLVLGLVGCFGMGIVANFQELAVPVVHDGGALLAFVCGVVYTLLQSIISYKSCPQWNSLSTCHIRMVISAVSCAAVIPMIVCASLISITKLEWNPREKDYVYHVVSAICEWTVAFGFIFYFLTFIQDFQSVTLRISTEINGDI
Regarding B1, the binding result is recorded as “binds”.

B2: DRAM1 expressed from DRAM1-pcDNA4 (protein, UniProt Q8N682 1-238)
chain: B1 chain
For the molecule B2, the binding result was “binds”.
